Experimental data: PubChem BioAssay AID1053208 (Peter MacCallum Cancer Centre, 2014)
Shown is one part, drawn at random, of about 17,000 reagents tested. In the full data, 788 (4.7%) are marked active. 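Calls rest on z-score classes alone; an extra cut-off of viability at most 70% of control was not applied to them.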 Entries without a mark were called inactive. The numbers tell different reagents against one gene apart. Further read-outs or replicates are left out here.

Aim: 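Genes whose silencing cuts survival of bone tumour cells only with doxorubicin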 (primary screen)
System: mouse osteosarcoma cells, early-passage culture from an engineered mouse model of fibroblastic bone tumour
Knock-down reagent: siRNA pool against mouse genes, 40 nM
Timing: about 120 h (48 h before drug, then 72 h with drug)
Challenge: doxorubicin 100 nM for 72 h, roughly 30-40% inhibitory dose
Measurement: 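Viability read as ATP luminescence after 72 h of 100 nM doxorubicin or none, duplicate wells averaged, scaled to non-targeting siRNA, then expressed as robust z-scores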
Direction: viability z-score with doxorubicin: higher = more viable cells under doxorubicin; viability z-score without drug: higher = more viable cells with knock-down alone
Call rule: 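Called active if knock-down leaves viability unchanged without drug (z within -2 to 2) but lowers it with doxorubicin (z at or under -2)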

combined z-score class,viability z-score with doxorubicin,viability z-score without drug,target,reagent
no change with or without drug,0.56,-0.17,Ccdc88a,1
no change with or without drug,-0.22,0.34,Fkbp14,1
no change with or without drug,0,-0.51,Rabepk,1
no change with or without drug,0,-0.84,Abcb1b,1
no change with or without drug,0,-1.01,Mrpl42,1
no change with or without drug,-0.22,0.51,Vmn2r7,1
no change with or without drug,0.56,0.84,Gja10,1
high cell count with doxorubicin only,3.15,1.35,Ntng2,1
no change with or without drug,-0.45,-1.18,Tead2,1
no change with or without drug,-1.24,-0.84,Akap13,1
no change with or without drug,1.91,1.18,Ccn1,1
no change with or without drug,-0.9,0,Tnfrsf11b,1
no change with or without drug,-0.67,-1.52,Ambn,1
no change with or without drug,0.22,1.18,Zfat,1
no change with or without drug,-0.67,-1.01,Or7a37,1
no change with or without drug,0.67,0,Ccdc92,1
low cell count without drug only,0,-3.2,Pabpc6,1
no change with or without drug,0.11,1.52,Ypel1,1
no change with or without drug,-0.45,-1.52,Mageb1,1
no change with or without drug,0.9,0.17,Mertk,1
no change with or without drug,-0.56,-0.51,Or8g37,1
low cell count without drug only,0.22,-2.19,Zfp819,1
low cell count with doxorubicin only (active),-3.82,-0.51,Tmem220,1
high cell count with doxorubicin only,2.02,0.17,Gimap1,1
no change with or without drug,1.35,0.51,Arl6ip6,1
no change with or without drug,0.9,0.84,Raet1e,1
no change with or without drug,0.22,-0.17,Mtf2,1
no change with or without drug,0.67,1.18,Ehf,1
no change with or without drug,-1.12,-0.51,Sh3bp5,1
no change with or without drug,0.11,0.51,Lin37,1
no change with or without drug,1.12,1.35,Etaa1,1
no change with or without drug,-0.22,0.67,Rfx4,1

Continued (7 carried over from the part before).
combined z-score class,viability z-score with doxorubicin,viability z-score without drug,target,reagent
no change with or without drug,0.9,0.84,Raet1e,1
no change with or without drug,0.22,-0.17,Mtf2,1
no change with or without drug,0.67,1.18,Ehf,1
no change with or without drug,-1.12,-0.51,Sh3bp5,1
no change with or without drug,0.11,0.51,Lin37,1
no change with or without drug,1.12,1.35,Etaa1,1
no change with or without drug,-0.22,0.67,Rfx4,1
low cell count with doxorubicin only (active),-2.02,-1.18,Or8k18,1
no change with or without drug,0.79,1.35,Nqo1,1
no change with or without drug,-0.45,0.17,Stx1b,1
no change with or without drug,0.34,0.51,Stx1b,2
no change with or without drug,0,-1.85,Or2ak6,1
no change with or without drug,0.56,-0.84,Dennd1b,1
no change with or without drug,1.24,1.52,Klf11,1
no change with or without drug,0,-0.51,Pus7,1
low cell count with and without drug,-2.25,-2.53,Ms4a4d,1
no change with or without drug,-0.9,-0.84,Usp30,1
low cell count with doxorubicin only (active),-2.36,-1.52,Ap2b1,1
no change with or without drug,0,-0.17,Snn,1
no change with or without drug,0.79,1.52,Or8b41,1
high cell count with and without drug,2.36,2.19,1810030O07Rik,1
no change with or without drug,0,0.84,Csnk1e,1
no change with or without drug,-0.45,-0.51,Amy1,1
no change with or without drug,-0.22,-0.84,Actr1b,1
no change with or without drug,-0.45,-0.67,Slc44a3,1
